From paper PMC11446795
No constants are given. Whether binding was seen depends on the method and setting. Binding seen in cells or lysates may run through a third protein.

Molecular target: C4H-nVenus (Petunia inflata)
Assay: split reporter; BiFC with nVenus (bait) and cVenus (prey) fusions co-expressed by agroinfiltration in N. benthamiana leaves with an ER marker (mRFP); confocal microscopy 2-3 days after infiltration

B1: CYP71E1 from Sorghum bicolor (negative control of the BiFC assay) (enzyme, UniProt O48958 1-531)
chain: MATTATPQLLGGSVPQQWQTCLLVLLPVLLVSYYLLTSRSRNRSRSGKLGGAPRLPPGPAQLPILGNLHLLGPLPHKNLRELARRYGPVMQLRLGTVPTVVVSSAEAAREVLKVHDVDCCSRPASPGPKRLSYDLKNVGFAPYGEYWREMRKLFALELLSMRRVKAACYAREQEMDRLVADLDRAAASKASIVLNDHVFALTDGIIGTVAFGNIYASKQFAHKERFQHVLDDAMDMMASFSAEDFFPNAAGRLADRLSGFLARRERIFNELDVFFEKVIDQHMDPARPVPDNGGDLVDVLINLCKEHDGTLRFTRDHVKAIVLDTFIGAIDTSSVTILWAMSELMRKPQVLRKAQAEVRAAVGDDKPRVNSEDAAKIPYLKMVVKETLRLHPPATLLVPRETMRDTTICGYDVPANTRVFVNAWAIGRDPASWPAPDEFNPDRFVGSDVDYYGSHFELIPFGAGRRICPGLTMGETNVTFTLANLLYCYDWALPGAMKPEDVSMEETGALTFHRKTPLVVVPTKYKNRRAA
  binding: no binding
